# PubChem BioAssay AID1259308, NCATS | 2017
# Screen: 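Genes whose loss raises luciferase production in HEK293 cells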 (primary screen)
# Cells: human HEK293 embryonic kidney cells stably expressing firefly luciferase (HEK-CMV-Luc2-Hygro)
# Knock-down reagent: single siRNA against human genes, 0.8 pmol siRNA per well
# Duration: 72 h
# Measured: 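Luciferase light (ONE-Glo) measured on one replicate plate set and viability (CellTiter-Glo) on the other, scaled to a negative control siRNA, with robust z-scores and luciferase per cell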
# Reading the numbers: total luciferase, z-score: higher = more reporter protein produced
# Call rule: 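Active when the median/MAD z-score for overall luciferase is greater than 3; a gene was taken forward for validation with new siRNAs if at least two of its three siRNAs passed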
# Calls: active = raised luciferase; inactive = no rise
# Here is an unselected part of about 59,000 reagents. Over the whole deposit, about 1,510 (2.6%) got an active call. 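Calls use total luciferase alone and ignore viability, so some active siRNAs may act by altering cell number.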 The numbers tell different reagents against one gene apart. Further read-outs or replicates are left out here. Reagent sequences are not shown.
gene knocked down,reagent,"total luciferase, z-score",activity call
FAM135A (GeneID 57579),1,-0.665,inactive
FAM135A (GeneID 57579),2,-1.38,inactive
FAM135A (GeneID 57579),3,-0.0549,inactive
SH2D3C (GeneID 10044),1,1.42,inactive
SH2D3C (GeneID 10044),2,-1.57,inactive
SH2D3C (GeneID 10044),3,1.34,inactive
C3orf38 (GeneID 285237),1,-0.248,inactive
C3orf38 (GeneID 285237),2,-0.967,inactive
C3orf38 (GeneID 285237),3,3.38,active
CRHBP (GeneID 1393),1,-2.33,inactive
CRHBP (GeneID 1393),2,0.31,inactive
CRHBP (GeneID 1393),3,0.707,inactive
GPR63 (GeneID 81491),1,-0.676,inactive
GPR63 (GeneID 81491),2,0.0636,inactive
GPR63 (GeneID 81491),3,-1.01,inactive
CBY1 (GeneID 25776),1,2.8,inactive
CBY1 (GeneID 25776),2,0.268,inactive
CBY1 (GeneID 25776),3,-0.409,inactive
SSX2IP (GeneID 117178),1,-0.519,inactive
SSX2IP (GeneID 117178),2,-0.223,inactive
SSX2IP (GeneID 117178),3,-0.82,inactive
ZFYVE21 (GeneID 79038),1,0.891,inactive
ZFYVE21 (GeneID 79038),2,-1.01,inactive
ZFYVE21 (GeneID 79038),3,1.12,inactive
KRIT1 (GeneID 889),1,1.2,inactive
KRIT1 (GeneID 889),2,0.677,inactive
KRIT1 (GeneID 889),3,-0.323,inactive
HSD17B3 (GeneID 3293),1,0.74,inactive
HSD17B3 (GeneID 3293),2,-0.455,inactive
HSD17B3 (GeneID 3293),3,1.33,inactive
DEPDC1B (GeneID 55789),1,0.209,inactive
DEPDC1B (GeneID 55789),2,1.81,inactive
DEPDC1B (GeneID 55789),3,0.0687,inactive
C11orf58 (GeneID 10944),1,2.54,inactive
C11orf58 (GeneID 10944),2,1.44,inactive
C11orf58 (GeneID 10944),3,0.584,inactive
ESPL1 (GeneID 9700),1,-0.855,inactive
ESPL1 (GeneID 9700),2,0.961,inactive
ESPL1 (GeneID 9700),3,-0.0497,inactive
FHAD1 (GeneID 114827),1,-0.257,inactive
FHAD1 (GeneID 114827),2,-0.168,inactive
FHAD1 (GeneID 114827),3,0.239,inactive
SF3B3 (GeneID 23450),1,2.41,inactive
SF3B3 (GeneID 23450),2,3.24,active
SF3B3 (GeneID 23450),3,3.31,active
AK4P3 (GeneID 645619),1,4.44,active
AK4P3 (GeneID 645619),2,-0.485,inactive
AK4P3 (GeneID 645619),3,0.565,inactive
CLNS1A (GeneID 1207),1,0.81,inactive
CLNS1A (GeneID 1207),2,-0.384,inactive
CLNS1A (GeneID 1207),3,-0.781,inactive
COMMD1 (GeneID 150684),1,-0.128,inactive
COMMD1 (GeneID 150684),2,2.32,inactive
COMMD1 (GeneID 150684),3,1.59,inactive
SLC25A34 (GeneID 284723),1,-0.00419,inactive
SLC25A34 (GeneID 284723),2,1.16,inactive
SLC25A34 (GeneID 284723),3,0.529,inactive
MDP1 (GeneID 145553),1,0.869,inactive
MDP1 (GeneID 145553),2,0.509,inactive
MDP1 (GeneID 145553),3,4.08,active
TAC1 (GeneID 6863),1,-1.23,inactive
TAC1 (GeneID 6863),2,3.73,active
TAC1 (GeneID 6863),3,0.293,inactive
SLC35F2 (GeneID 54733),1,0.484,inactive
SLC35F2 (GeneID 54733),2,-0.0303,inactive
SLC35F2 (GeneID 54733),3,-0.284,inactive
NDUFA11 (GeneID 126328),1,-1.19,inactive
NDUFA11 (GeneID 126328),2,-0.139,inactive
NDUFA11 (GeneID 126328),3,0.0122,inactive
SRP19 (GeneID 6728),1,-0.492,inactive
SRP19 (GeneID 6728),2,1.16,inactive
SRP19 (GeneID 6728),3,0.104,inactive
HSD17B6 (GeneID 8630),1,-0.0508,inactive
HSD17B6 (GeneID 8630),2,0.791,inactive
HSD17B6 (GeneID 8630),3,-2.5,inactive

Records above whose target name starts with Z or z (3):
gene knocked down,reagent,"total luciferase, z-score",activity call
ZFYVE21 (GeneID 79038),1,0.891,inactive
ZFYVE21 (GeneID 79038),2,-1.01,inactive
ZFYVE21 (GeneID 79038),3,1.12,inactive
